Values quoted from earlier work, collected in publication PMC8453865 (Clinical Pharmacology in Drug Development, 2021).

Conditions: coadministration with gemfibrozil; cited from earlier work

## CC(C)c1c(C(=O)Nc2ccccc2)c(-c2ccccc2)c(-c2ccc(F)cc2)n1CC[C@@H](O)C[C@@H](O)CC(=O)O [atorvastatin]
  increase in plasma atorvastatin AUC0‐∞: 24%
